No constants are given. Whether binding was seen depends on the method and setting. Binding seen in cells or lysates may run through a third protein. Some entries that bind do so weakly or less than the wild type.

For this assay, the target named is T1, SPF45 (mouse (endogenous in Hepa1-6 and in liver)) (UniProt Q8JZX4).
T1 sequence: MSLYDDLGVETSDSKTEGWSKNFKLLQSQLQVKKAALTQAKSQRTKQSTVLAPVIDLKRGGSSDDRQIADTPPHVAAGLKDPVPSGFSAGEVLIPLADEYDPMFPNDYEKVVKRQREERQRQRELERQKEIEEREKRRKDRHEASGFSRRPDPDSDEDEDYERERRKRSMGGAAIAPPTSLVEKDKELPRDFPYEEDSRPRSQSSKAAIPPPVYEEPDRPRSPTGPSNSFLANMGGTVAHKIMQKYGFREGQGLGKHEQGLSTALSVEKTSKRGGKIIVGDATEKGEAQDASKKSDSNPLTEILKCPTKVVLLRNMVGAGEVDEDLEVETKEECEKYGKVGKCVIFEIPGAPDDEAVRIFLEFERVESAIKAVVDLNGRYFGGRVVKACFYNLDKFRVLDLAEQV
Kind of assay: co-IP; mouse liver nuclear extracts (0.1% NP-40, Benzonase) incubated with antibodies against spliceosome proteins at 4°C overnight, protein A/G-agarose, blot with lipin 1 antibody; all proteins endogenous.

B1: endogenous lipin 1 (protein, UniProt Q91ZP3 1-924)
chain: MNYVGQLAGQVFVTVKELYKGLNPATLSGCIDIIVIRQPNGSLQCSPFHVRFGKMGVLRSREKVVDIEINGESVDLHMKLGDNGEAFFVQETDNDQEIIPMYLATSPILSEGAARMESQLKRNSVDRIRCLDPTTAAQGLPPSDTPSTGSLGKKRRKRRRKAQLDNLKRDDNVNSSEDEDMFPIEMSSDEDTAPMDGSRTLPNDVPPFQDDIPKENFPSISTHPQSASYPSSDREWSPSPSSLVDCQRTPPHLAEGVLSSSCPLQSCHFHASESPSGSRPSTPKSDSELVSKSADRLTPKNNLEMLWLWGELPQAAKSSSPHKMKESSPLGSRKTPDKMNFQAIHSESSDTFSDQSPTMARGLLIHQSKAQTEMQFVNEEDLESLGAAAPPSPVAEELKAPYPNTAQSSSKTDSPSRKKDKRSRHLGADGVYLDDLTDMDPEVAALYFPKNGDPGGLPKQASDNGARSANQSPQSVGGSGIDSGVESTSDSLRDLPSIAISLCGGLSDHREITKDAFLEQAVSYQQFADNPAIIDDPNLVVKVGNKYYNWTTAAPLLLAMQAFQKPLPKATVESIMRDKMPKKGGRWWFSWRGRNATIKEESKPEQCLTGKGHNTGEQPAQLGLATRIKHESSSSDEEHAAAKPSGSSHLSLLSNVSYKKTLRLTSEQLKSLKLKNGPNDVVFSVTTQYQGTCRCEGTIYLWNWDDKVIISDIDGTITRSDTLGHILPTLGKDWTHQGIAKLYHKVSQNGYKFLYCSARAIGMADMTRGYLHWVNERGTVLPQGPLLLSPSSLFSALHREVIEKKPEKFKVQCLTDIKNLFFPNTEPFYAAFGNRPADVYSYKQVGVSLNRIFTVNPKGELVQEHAKTNISSYVRLCEVVDHVFPLLKRSHSCDFPCSDTFSNFTFWREPLPPFENQDMHSASA
Regarding B1, the binding result was “binds”.

(Values after article PMC8492312.)
